{
  "source": "PubChem BioAssay AID330",
  "about": "(DTP/NCI, 2004)",
  "tested_on": "P388 leukemia ip, CD2F1 mice, survival T/C",
  "assay": "NCI In Vivo Anticancer Drug Screen. Data for tumor model P388 Leukemia (intraperitoneal) in CD2F1 (CDF1) mice",
  "settings": "T/C endpoint: median survival time, higher T/C = longer survival",
  "key": {"[1]": {"settings": "dose: 400.0 mg/kg/injection, schedule: Q01DX009 (ip), vehicle: saline with Tween-80"}, "[2]": {"settings": "dose: 200.0 mg/kg/injection, schedule: Q01DX009 (ip), vehicle: saline"}, "[3]": {"settings": "dose: 100.0 mg/kg/injection, schedule: Q01DX005 (ip), vehicle: saline with Tween-80"}},
  "note": "The list does not hold the whole screen: it gathers tests that were run many times, whatever their T/C, doses with no T/C, and many T/C values between a quarter and a half above the control. Other doses and runs of a compound stand elsewhere. T/C gives the treated animals as a percentage of the vehicle group. Some doses have a count of surviving animals in place of a T/C: the source files T/C as zero there, which appears to mark a toxic dose or a test without result, not a measured value. Some doses without a T/C left all or most animals alive at the check, yet need not have been tolerated: the source hardly ever lists a survival T/C far under the control, and the zero likely stands for such cases as well. Survivors were counted at the toxicity check, usually on the fifth day, unless a day is given; later deaths do not show. Schedules are NCI's codes, taken here to give the interval after Q, in days (D) or hours (H), and the number of doses after X. Some doses were run more than once; the results are listed from low to high. Where survival is the endpoint, this PubChem deposit counts one and a half times the control or more as active, and values a quarter to a half above the control carry no call in these data; other NCI protocols may use other cut-offs. Some T/C values carry the count of animals alive at the toxicity check (mostly the fifth day); without a count, all were alive then.",
  "data": [
    {"smiles": "O=c1cccc(C2CC(CO)C3CCCCN3C2)[nH]1", "note": "(stereo not drawn)", "values": [
      {"measurement": "survivor count", "setting": "dose: 4.5 mg/kg/injection, schedule: Q01DX009 (ip), vehicle: acid diluted with CMC", "result": "6 of 6"},
      {"measurement": "survivor count", "setting": "dose: 36.0 mg/kg/injection, schedule: Q01DX009 (ip), vehicle: acid diluted with CMC", "result": "1 of 6"}
    ]},
    {"smiles": "CN(N=O)C(=O)NCCCCCNC(=O)N(C)N=O", "values": [
      {"measurement": "T/C", "setting": "dose: 100.0 mg/kg/injection, schedule: Q01DX009 (ip), vehicle: saline with Tween-80", "result": "145 % of control [5 of 6 alive]"},
      {"measurement": "T/C", "setting": "dose: 200.0 mg/kg/injection, schedule: Q01DX009 (ip), vehicle: saline with Tween-80", "result": "136 % of control [5 of 6 alive]"},
      {"measurement": "T/C", "setting": "dose: 264.0 mg/kg/injection, schedule: Q01DX009 (ip), vehicle: saline with Tween-80", "result": "131 % of control [5 of 6 alive]"}
    ]},
    {"smiles": "c1ccc2c(c1)Sc1ccccc1N2Cc1cnc[nH]1", "values": [
      {"measurement": "T/C", "setting": "dose: 50.0 mg/kg/injection, schedule: Q01DX009 (ip), vehicle: alcohol", "result": "141 % of control"},
      {"measurement": "T/C", "setting": "dose: 100.0 mg/kg/injection, schedule: Q01DX009 (ip), vehicle: alcohol", "result": "146 % of control"},
      {"measurement": "survivor count", "setting": "dose: 200.0 mg/kg/injection, schedule: Q01DX009 (ip), vehicle: alcohol", "result": "0 of 6 and 3 of 6"}
    ]},
    {"smiles": "C#CCn1cnc2c(=S)nc[nH]c21", "values": [
      {"measurement": "survivor count", "setting": "dose: 266.0 mg/kg/injection, schedule: Q01DX009 (ip), vehicle: saline with Tween-80", "result": "6 of 6"},
      {"measurement": "survivor count", "setting": "[1]", "result": "6 of 6"}
    ]},
    {"smiles": "COc1cccc2c1C(=O)c1c(O)c3c(c(O)c1C2=O)CC(O)(C(O)CO)CC3OC1CC(N2CCSCC2)C(O)C(C)O1", "note": "(stereo not drawn)", "values": [
      {"measurement": "T/C", "setting": "dose: 25.0 mg/kg/injection, schedule: Q04DX003 (ip), vehicle: saline", "result": "131 % of control"},
      {"measurement": "T/C", "setting": "dose: 50.0 mg/kg/injection, schedule: Q04DX003 (ip), vehicle: saline", "result": "131 % of control"}
    ]},
    {"smiles": "COC(=O)c1cc2cccn2cn1", "values": [
      {"measurement": "survivor count", "setting": "dose: 50.0 mg/kg/injection, schedule: Q01DX009 (ip), vehicle: saline with Tween-80", "result": "6 of 6"}
    ]},
    {"smiles": "CC1(C)OCC(CO)(Nc2nc(N3CC3)nc(N3CC3)n2)CO1", "values": [
      {"measurement": "T/C", "setting": "dose: 0.62 mg/kg/injection, schedule: Q01DX009 (ip), vehicle: saline", "result": "132 % of control"},
      {"measurement": "survivor count", "setting": "dose: 10.0 mg/kg/injection, schedule: Q01DX009 (ip), vehicle: saline", "result": "10 of 10"},
      {"measurement": "survivor count", "setting": "dose: 20.0 mg/kg/injection, schedule: Q01DX009 (ip), vehicle: saline", "result": "10 of 10"},
      {"measurement": "survivor count", "setting": "dose: 40.0 mg/kg/injection, schedule: Q01DX009 (ip), vehicle: saline", "result": "2 of 10"}
    ]},
    {"smiles": "c1ccc2c(CC3=NCCN3)noc2c1", "values": [
      {"measurement": "survivor count", "setting": "dose: 100.0 mg/kg/injection, schedule: Q01DX009 (ip), vehicle: saline", "result": "0 of 6"},
      {"measurement": "survivor count", "setting": "[2]", "result": "0 of 6"}
    ]},
    {"smiles": "CNC(=O)On1cccc1C#N", "values": [
      {"measurement": "survivor count", "setting": "dose: 100.0 mg/kg/injection, schedule: Q04DX002 (ip), vehicle: saline with Tween-80", "result": "0 of 6"},
      {"measurement": "survivor count", "setting": "dose: 200.0 mg/kg/injection, schedule: Q04DX002 (ip), vehicle: saline with Tween-80", "result": "0 of 6"},
      {"measurement": "survivor count", "setting": "dose: 400.0 mg/kg/injection, schedule: Q04DX002 (ip), vehicle: saline with Tween-80", "result": "0 of 6"}
    ]},
    {"smiles": "CCN(CC)CCNCc1cc(Cl)c2cccnc2c1O", "values": [
      {"measurement": "survivor count", "setting": "[2]", "result": "0 of 6"}
    ]},
    {"smiles": "O=C([O][Bi]([c]1ccccc1)[c]1ccccc1)c1ccccc1", "values": [
      {"measurement": "survivor count", "setting": "dose: 12.5 mg/kg/injection, schedule: Q01DX005 (ip), vehicle: Klucel (hydroxypropylcellulose) (HPC)", "result": "6 of 6"},
      {"measurement": "T/C", "setting": "dose: 50.0 mg/kg/injection, schedule: Q01DX005 (ip), vehicle: Klucel (hydroxypropylcellulose) (HPC)", "result": "131 [5 of 6 alive] and 147 % of control"},
      {"measurement": "survivor count", "setting": "dose: 100.0 mg/kg/injection, schedule: Q01DX005 (ip), vehicle: Klucel (hydroxypropylcellulose) (HPC)", "result": "3 of 6"},
      {"measurement": "survivor count", "setting": "dose: 200.0 mg/kg/injection, schedule: Q01DX005 (ip), vehicle: Klucel (hydroxypropylcellulose) (HPC)", "result": "0 of 6"}
    ]},
    {"smiles": "CSC(=S)n1nc(C)c(N=Nc2cc(Cl)ccc2Cl)c1C", "values": [
      {"measurement": "survivor count", "setting": "dose: 50.0 mg/kg/injection, schedule: Q01DX005 (ip), vehicle: saline with Tween-80", "result": "6 of 6"},
      {"measurement": "survivor count", "setting": "[3]", "result": "6 of 6"}
    ]},
    {"smiles": "C=C1C(=O)O[C@H]2C[C@@H]3O[C@@H]3[C@@H]12", "values": [
      {"measurement": "survivor count", "setting": "dose: 25.0 mg/kg/injection, schedule: Q01DX009 (ip), vehicle: water", "result": "0 of 6"}
    ]},
    {"smiles": "CCCCCCC(=O)NC1=C(N2CC2)C(=O)C(NC(=O)CCCCCC)=C(N2CC2)C1=O", "values": [
      {"measurement": "T/C", "setting": "dose: 50.0 mg/kg/injection, schedule: Q04DX003 (ip), vehicle: saline with Tween-80", "result": "131 % of control"},
      {"measurement": "T/C", "setting": "dose: 66.0 mg/kg/injection, schedule: Q04DX003 (ip), vehicle: saline with Tween-80", "result": "145 % of control"},
      {"measurement": "survivor count", "setting": "[1]", "result": "6 of 6"}
    ]},
    {"smiles": "CN1CCC(/C=C/c2ccc(Cl)c(Cl)c2)CN1", "note": "(stereo not drawn) (tested in a mixture with another compound)", "values": [
      {"measurement": "survivor count", "setting": "dose: 50.0 mg/kg/injection, schedule: Q01DX001 (ip), vehicle: saline", "result": "5 of 6"},
      {"measurement": "survivor count", "setting": "dose: 200.0 mg/kg/injection, schedule: Q01DX001 (ip), vehicle: suspension in saline", "result": "2 of 6"},
      {"measurement": "survivor count", "setting": "dose: 400.0 mg/kg/injection, schedule: Q01DX001 (ip), vehicle: suspension in saline", "result": "0 of 6"}
    ]},
    {"smiles": "CC[C@H]1C[C@H]2CN(CCc3c([nH]c4ccccc34)[C@@](C(=O)OC)(c3cc4c(cc3OC)N(C=O)[C@H]3[C@@](O)(C(=O)OC)[C@H](OC(C)=O)[C@]5(CC)C=CCN6CC[C@]43[C@@H]65)C2)C1", "values": [
      {"measurement": "T/C", "setting": "dose: 0.25 mg/kg/injection, schedule: Q01DX001 (ip), vehicle: water", "result": "137 and 144 % of control"},
      {"measurement": "T/C", "setting": "dose: 0.5 mg/kg/injection, schedule: Q01DX001 (ip), vehicle: water", "result": "137 % of control"},
      {"measurement": "survivor count", "setting": "dose: 2.0 mg/kg/injection, schedule: Q01DX001 (ip), vehicle: water", "result": "3 of 6"},
      {"measurement": "survivor count", "setting": "dose: 4.0 mg/kg/injection, schedule: Q01DX001 (ip), vehicle: water", "result": "0 of 6"},
      {"measurement": "survivor count", "setting": "dose: 8.0 mg/kg/injection, schedule: Q01DX001 (ip), vehicle: water", "result": "0 of 6"},
      {"measurement": "survivor count", "setting": "dose: 16.0 mg/kg/injection, schedule: Q01DX001 (ip), vehicle: water", "result": "0 of 6"},
      {"measurement": "survivor count", "setting": "dose: 32.0 mg/kg/injection, schedule: Q01DX001 (ip), vehicle: water", "result": "0 of 6"}
    ]},
    {"smiles": "CC1=CC(=C2C(=O)c3ccccc3C2=O)C=C(C)N1CC#CCN1CCCCC1", "values": [
      {"measurement": "survivor count", "setting": "dose: 60.0 mg/kg/injection, schedule: Q01DX005 (ip), vehicle: Klucel (hydroxypropylcellulose) (HPC)", "result": "5 of 6"},
      {"measurement": "survivor count", "setting": "dose: 120.0 mg/kg/injection, schedule: Q01DX005 (ip), vehicle: Klucel (hydroxypropylcellulose) (HPC)", "result": "4 of 6"}
    ]},
    {"smiles": "Cn1cccc1C(C=C(c1ccccc1)c1ccccc1)c1cccn1C", "values": [
      {"measurement": "survivor count", "setting": "[3]", "result": "6 of 6"},
      {"measurement": "survivor count", "setting": "dose: 200.0 mg/kg/injection, schedule: Q01DX005 (ip), vehicle: saline with Tween-80", "result": "6 of 6"}
    ]},
    {"smiles": "O=c1c2ccccc2nc(-c2ccccc2)n1-c1cc(C(F)(F)F)cc(C(F)(F)F)c1", "values": [
      {"measurement": "survivor count", "setting": "dose: 25.0 mg/kg/injection, schedule: Q01DX009 (ip), vehicle: saline with Tween-80", "result": "6 of 6"}
    ]}
  ]
}
